Assay results from PubChem BioAssay AID1782 (National Center for Advancing Translational Sciences (NCATS), 2009).
“And” between values parts separate entries of the source, which are not always exact repeats. Equal values may be shown once. Inconclusive results, whose numbers are uncertain, are shown with a selection of clear calls. Potencies of inconclusive entries are doubtful fits and often do not repeat. The source made the active and inactive calls. Calls follow the shape of the dose curve; as a rule, active = well fitted curve in the direction sought with a large enough effect; inconclusive = small, poorly fitted or top-dose-only effect, or another doubt; inactive = no such curve, though single readings can be large or run the other way.

Sequences of proteins named here, by UniProt entry; tags and fusion partners are left off. A change or cut given only in a name is not applied to a line headed by its entry.
UniProt P30613: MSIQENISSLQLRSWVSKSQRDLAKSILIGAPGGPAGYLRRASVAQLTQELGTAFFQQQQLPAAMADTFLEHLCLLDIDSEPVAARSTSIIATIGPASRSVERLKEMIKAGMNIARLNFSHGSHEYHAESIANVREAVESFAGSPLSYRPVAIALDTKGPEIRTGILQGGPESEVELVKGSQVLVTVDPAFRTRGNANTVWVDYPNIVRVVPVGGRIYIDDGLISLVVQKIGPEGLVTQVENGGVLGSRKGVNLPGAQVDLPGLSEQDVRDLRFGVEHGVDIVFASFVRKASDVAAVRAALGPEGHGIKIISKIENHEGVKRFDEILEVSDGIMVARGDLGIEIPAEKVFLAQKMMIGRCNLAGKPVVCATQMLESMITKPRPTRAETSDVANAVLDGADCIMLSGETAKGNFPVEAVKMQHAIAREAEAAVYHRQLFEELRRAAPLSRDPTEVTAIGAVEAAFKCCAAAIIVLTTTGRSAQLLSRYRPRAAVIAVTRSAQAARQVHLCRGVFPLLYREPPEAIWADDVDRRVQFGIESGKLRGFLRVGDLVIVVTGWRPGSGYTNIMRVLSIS

The molecules below were run against Pyruvate kinase PKLR (Homo sapiens) (UniProt P30613) (assay: Confirmation Concentration-Response Assay for Activators of Human Reticulocyte Pyruvate Kinase). Conditions: purified hPK-R, Kinase-Glo ATP luminescence, 1 h; series mostly up to 57.5 µM.
Description: Confirmatory assay NIH Chemical Genomics Center [NCGC] Wael M. Rabeh, Lyudmila Nedyalkova and Hee-Wan Park [Structural Genomics Consortium, 100 College St. Toronto, Ontario, Canada] NCGC Assay Overview: Human pyruvate kinase reticulocyte (hPK-R) enzyme was supplied as a highly purified (>95% pure) preparation from Structural Genomics Consortium in Toronto (Ontario, Canada) and assayed for its ability to generate ATP from ADP using phosphoenolpyruvate (PEP) as a substrate. ATP generation was detected in a coupled reaction by luciferase-mediated luminescence, an ATP-dependent process. Pyruvate kinase substrates, PEP and ADP, were present in the assay at Km and approximately 10-fold below Km respectively. The enzyme was assayed at an intermediate level of activity to screen for both inhibitors and activators.
NCGC Assay Protocol Summary for R-isoform Three uL of substrate mix (at r.t.) in assay buffer (50 mM Imidazole pH7.2, 50 mM KCl, 7 mM MgCl2, 0.01% Tween 20, 0.05% BSA) was dispensed into white solid bottom 1,536 well microtiter plates so that the final concentrations of substrates in the assay were 0.1 mM ADP and 0.5 mM PEP. 23 nL of compound were delivered by a pin tool and 1 uL of enzyme mix (final concentration of 0.1 nM) in assay buffer (4 degree Celsius) was added. Plates were incubated at room temperature for 1 hour. Two uL of detection mix (Kinase-Glo, Promega; at 4 degree Celsius protected from light) was added and luminescence read by a ViewLux (Perkin Elmer) at 1 second exposure/plate. Data were normalized to the uninhibited (row 31). Additionally, a no enzyme and 5-fold enzyme control was dispensed in row 32, split equally between the two conditions.

Potency, inconclusive:
O=S(=O)(NC1CCN(S(=O)(=O)c2ccc3c(c2)OCCO3)CC1)c1c(F)cccc1F 5620 nM [rising, full curve]
O=S(=O)(NCC1CN(S(=O)(=O)c2c(F)cccc2F)C1)c1ccc2c(c1)OCCO2 7080 nM [rising, full curve]
O=S(=O)(NC1CCN(S(=O)(=O)c2ccc3c(c2)OCCO3)C1)c1c(F)cccc1F (stereo not given) 20000 nM [rising, partial curve]
O=S(=O)(NC1CCN(S(=O)(=O)c2c(F)cccc2F)CC1)c1ccc2c(c1)OCCO2 8910 nM [rising, full curve, poor fit]
C[C@@H]1CN(S(=O)(=O)c2c(F)cccc2F)CCN1S(=O)(=O)c1ccc2c(c1)OCCO2 12600 nM [rising, full curve, poor fit]
Cc1cc2c(s1)c1cnn(Cc3cccc(Cl)c3)c(=O)c1n2C 0.2 nM
C[C@@H]1CN(S(=O)(=O)c2ccc3c(c2)OCCO3)CCN1S(=O)(=O)c1c(F)cccc1F 20000 nM [rising, partial curve, poor fit]
COc1cc(F)c(S(=O)(=O)N2CCN(S(=O)(=O)c3ccc4c(c3)OCCO4)CC2)c(F)c1 79.4 nM [rising, full curve]
O=S(=O)(NC1CCN(S(=O)(=O)c2c(F)cccc2F)C1)c1ccc2c(c1)OCCO2 (stereo not given) 25100 nM [rising, partial curve]
O=S(=O)(c1ccc2c(c1)OCCO2)C1CCN(S(=O)(=O)c2c(F)cccc2F)CC1 1580 nM [rising, full curve]
COc1cccc(S(=O)(=O)N2CCN(S(=O)(=O)c3ccc4c(c3)OCCO4)CC2)c1 282 nM [rising, full curve]
C[C@H]1CN(S(=O)(=O)c2ccc3c(c2)OCCO3)CCN1S(=O)(=O)c1c(F)cccc1F 89.1 nM [rising, full curve, poor fit]
O=S(=O)(NCCCCNS(=O)(=O)c1c(F)cccc1F)c1ccc2c(c1)OCCO2 11200 nM [rising, full curve]
O=S(=O)(c1ccc2c(c1)OCCO2)N1CCN(S(=O)(=O)c2c(F)ccc(O)c2F)CC1 562 nM [rising, full curve, poor fit]
O=C1CN(S(=O)(=O)c2ccc3c(c2)OCCO3)CCN1S(=O)(=O)c1c(F)cccc1F 2510 nM [rising, full curve]
C[C@H]1CN(S(=O)(=O)c2c(F)cccc2F)CCN1S(=O)(=O)c1ccc2c(c1)OCCO2 25100 nM [rising, partial curve]
O=S(=O)(NCCCCCCNS(=O)(=O)c1c(F)cccc1F)c1ccc2c(c1)OCCO2 6310 nM [rising, partial curve, poor fit]
O=S(=O)(c1ccc2c(c1)OCCO2)N1CCN(S(=O)(=O)c2ccccc2F)CC1 355 nM [rising, full curve]
O=S(=O)(c1ccc2c(c1)OCCO2)N1CCN(S(=O)(=O)c2ccccn2)CC1 2000 nM [rising, full curve]
O=S(=O)(c1c(F)cccc1F)C1CCN(S(=O)(=O)c2ccc3c(c2)OCCO3)CC1 631 nM [rising, full curve]
O=S(=O)(c1ccc2c(c1)OCCO2)N1CCCN(S(=O)(=O)c2c(F)cccc2F)CC1 2820 nM [rising, full curve]
O=S(=O)(c1ccccc1)N1CCN(S(=O)(=O)c2ccc3c(c2)OCCO3)CC1 1260 nM [rising, full curve]
Cc1nc2ccc(S(=O)(=O)N3CCN(S(=O)(=O)c4c(F)cccc4F)CC3)cc2s1 89.1 nM [rising, full curve, poor fit]
Cn1ccc2cc(S(=O)(=O)N3CCN(S(=O)(=O)c4c(F)cccc4F)CC3)ccc21 251 nM [rising, full curve]
Cc1cc2c(s1)c1cnn(Cc3c(F)c(F)cc(F)c3F)c(=O)c1n2C 178 nM [rising, partial curve, poor fit]

A draw from above in order of count of non-hydrogen atoms, high to low:
Potency, inconclusive:
O=S(=O)(c1ccc2c(c1)OCCO2)N1CCN(S(=O)(=O)c2c(F)ccc(O)c2F)CC1 562 nM [rising, full curve, poor fit]
COc1cccc(S(=O)(=O)N2CCN(S(=O)(=O)c3ccc4c(c3)OCCO4)CC2)c1 282 nM [rising, full curve]
O=S(=O)(c1ccccc1)N1CCN(S(=O)(=O)c2ccc3c(c2)OCCO3)CC1 1260 nM [rising, full curve]

Following part:

Potency, active:
COc1ccc(S(=O)(=O)N2CCN(S(=O)(=O)c3ccc4c(c3)OCCO4)CC2)cc1 1410 nM

Potency, inactive and 0.2 nM (inconclusive):
O=S(=O)(c1c(F)cccc1F)N1CCN(S(=O)(=O)c2c(F)cccc2F)CC1

Potency, inactive:
Cc1cc2c(s1)c1cnn(-c3ccccc3)c(=O)c1n2C
Cc1cc2c(s1)c1cnn(Cc3ccc(C)c(F)c3F)c(=O)c1n2C
Cc1cc2c(s1)c1cnn(Cc3ccc(-c4ccccc4)cc3)c(=O)c1n2C
Cn1c2ccsc2c2cnn(Cc3ccccc3F)c(=O)c21
Cn1c2cc(C=O)sc2c2cnn(Cc3ccccc3F)c(=O)c21
O=S(=O)(c1ccc(F)cc1)N1CCN(S(=O)(=O)c2ccc3c(c2)OCCO3)CC1
O=S(=O)(c1ccc2c(c1)OCO2)N1CCN(S(=O)(=O)c2c(F)cccc2F)CC1
Cc1cc2c(s1)c1cnn(Cc3ccccc3)c(=O)c1n2C
O=S(=O)(NCCCCCNS(=O)(=O)c1c(F)cccc1F)c1ccc2c(c1)OCCO2
CCn1c2cc(C)sc2c2cnn(Cc3ccccc3F)c(=O)c21
Cn1c2cc(B(O)O)sc2c2cnn(Cc3ccccc3F)c(=O)c21
Cc1cc2c(s1)c1cnn(Cc3ccc(S(C)(=O)=O)cc3)c(=O)c1n2C
Cc1cc2c(s1)c1cnn(Cc3cccc(F)c3)c(=O)c1n2C
